Source: publication PMC6033466

Biological target: T1, Myc-VN-USP8 (human) (UniProt P40818)
T1 sequence: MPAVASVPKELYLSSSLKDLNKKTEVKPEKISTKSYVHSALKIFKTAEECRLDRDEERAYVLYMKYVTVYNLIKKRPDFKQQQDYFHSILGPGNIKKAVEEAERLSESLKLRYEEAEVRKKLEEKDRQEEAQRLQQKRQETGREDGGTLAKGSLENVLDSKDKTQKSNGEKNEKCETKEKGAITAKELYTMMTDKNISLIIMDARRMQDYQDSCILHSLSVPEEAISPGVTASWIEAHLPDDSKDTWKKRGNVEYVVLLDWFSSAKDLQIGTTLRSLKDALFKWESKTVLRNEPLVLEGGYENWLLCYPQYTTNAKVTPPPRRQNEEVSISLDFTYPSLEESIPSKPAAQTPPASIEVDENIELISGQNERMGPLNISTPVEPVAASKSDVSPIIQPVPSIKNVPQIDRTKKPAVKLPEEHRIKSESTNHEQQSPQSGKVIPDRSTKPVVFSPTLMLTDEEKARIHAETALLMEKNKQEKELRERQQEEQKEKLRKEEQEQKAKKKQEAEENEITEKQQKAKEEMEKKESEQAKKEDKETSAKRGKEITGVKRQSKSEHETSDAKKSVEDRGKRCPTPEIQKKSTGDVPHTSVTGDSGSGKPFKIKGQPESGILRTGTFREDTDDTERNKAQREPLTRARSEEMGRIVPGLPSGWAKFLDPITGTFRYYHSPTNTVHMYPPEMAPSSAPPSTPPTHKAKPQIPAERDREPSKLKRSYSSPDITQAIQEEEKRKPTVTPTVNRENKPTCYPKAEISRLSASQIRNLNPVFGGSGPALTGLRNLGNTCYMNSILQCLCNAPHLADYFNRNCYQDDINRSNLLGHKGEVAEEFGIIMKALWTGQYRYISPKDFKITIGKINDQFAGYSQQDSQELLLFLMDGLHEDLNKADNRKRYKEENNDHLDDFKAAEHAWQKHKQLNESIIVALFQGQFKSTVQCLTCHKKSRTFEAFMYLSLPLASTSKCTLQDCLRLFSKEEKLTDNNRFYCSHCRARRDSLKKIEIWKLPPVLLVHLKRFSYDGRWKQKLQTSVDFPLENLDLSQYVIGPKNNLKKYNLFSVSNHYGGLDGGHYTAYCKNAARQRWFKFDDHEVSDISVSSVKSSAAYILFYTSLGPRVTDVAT
Assay: split reporter; Venus complementation; fixed HeLa cells co-transfected with Myc-VN-USP8 and HA-VC-CHMP1B constructs; Venus spots counted per Myc and HA positive cell

binding | Substance
binds | HA-VC-CHMP1B Δα5,6 (human) (domain or fragment)
binds | HA-VC-CHMP1B Δα6 (human) (domain or fragment)

Results are given in words; binding and its absence hold for the method and conditions named. Binding seen in cells or lysates may run through a third protein. A result given as binding can be weak or reduced; the word gives no strength. Tags and fused reporters may be left off the sequences shown.
